Data from US20060251726A1.
No constants are given. Whether binding was seen depends on the method and setting. In cells and extracts the contact can be indirect. Some results given as binding are weak or reduced against the parent protein; the word gives no strength. Where a sequence is shown, tags or fusion partners need not be part of it.

Sequences of proteins named here, by UniProt entry; tags and fusion partners are left off.
UniProt P00519: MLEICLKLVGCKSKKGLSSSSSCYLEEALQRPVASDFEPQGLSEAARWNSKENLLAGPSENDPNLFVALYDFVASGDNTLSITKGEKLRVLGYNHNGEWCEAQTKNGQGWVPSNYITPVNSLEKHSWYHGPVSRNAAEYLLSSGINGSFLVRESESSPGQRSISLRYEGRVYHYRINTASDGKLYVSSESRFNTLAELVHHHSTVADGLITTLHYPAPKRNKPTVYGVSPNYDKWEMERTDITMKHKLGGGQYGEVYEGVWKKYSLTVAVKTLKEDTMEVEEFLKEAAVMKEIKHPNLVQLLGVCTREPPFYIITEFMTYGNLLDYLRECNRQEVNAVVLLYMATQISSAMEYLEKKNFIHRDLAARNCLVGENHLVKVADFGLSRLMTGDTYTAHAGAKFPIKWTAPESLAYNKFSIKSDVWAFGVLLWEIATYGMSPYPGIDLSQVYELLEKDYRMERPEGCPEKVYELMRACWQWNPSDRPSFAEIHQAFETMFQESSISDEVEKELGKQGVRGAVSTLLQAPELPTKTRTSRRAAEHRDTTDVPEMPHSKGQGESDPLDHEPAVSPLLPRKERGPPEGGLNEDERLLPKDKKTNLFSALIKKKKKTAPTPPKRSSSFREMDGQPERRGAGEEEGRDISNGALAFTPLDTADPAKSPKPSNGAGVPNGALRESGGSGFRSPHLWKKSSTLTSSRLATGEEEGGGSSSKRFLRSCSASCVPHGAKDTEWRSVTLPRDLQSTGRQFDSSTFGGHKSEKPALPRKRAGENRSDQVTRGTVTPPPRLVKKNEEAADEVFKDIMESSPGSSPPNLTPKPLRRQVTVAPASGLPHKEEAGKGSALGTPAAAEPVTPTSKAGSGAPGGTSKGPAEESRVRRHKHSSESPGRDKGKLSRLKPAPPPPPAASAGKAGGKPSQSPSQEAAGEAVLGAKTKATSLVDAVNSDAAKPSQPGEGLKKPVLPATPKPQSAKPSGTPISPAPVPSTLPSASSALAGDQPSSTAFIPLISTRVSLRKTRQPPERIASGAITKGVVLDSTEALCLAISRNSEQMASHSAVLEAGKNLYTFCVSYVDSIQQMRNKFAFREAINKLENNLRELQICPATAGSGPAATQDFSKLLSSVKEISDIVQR

How the values were obtained:
[1] = target: c-Abl (expressed from c-ABL cDNA in COS1 cells) (UniProt P00519); test: co-immunoprecipitation from COS1 cells co-transfected with FUS1 and c-ABL
[2] = target: c-Abl (expressed from c-ABL cDNA in COS1 cells) (UniProt P00519); test: co-expression / co-immunoprecipitation in COS1 cells

B1: wild type Fus1 protein (protein)
chain: GASGSKARGLWPFASAAGGGGSEAAGAEQALVRPRGRAVPPFVFTRRGSMFYDEDGDLAHEFYEETIVTKNGQKRAKLRRVHKNLIPQGIVKLDHPRIHVDFPVILYEV
binding [1]: binds
binding [2]: binds
